Experimental data published in publication PMC4865918.
No constants are given. Whether binding was seen depends on the method and setting. For some assays here: Binding seen in cells or lysates may run through a third protein. Some binding calls cover weakened binding; strength is not graded here. Tags and fused reporters may be left off the sequences shown.

T1: GST-PRL-2 (human) (UniProt Q12974)
T1 sequence: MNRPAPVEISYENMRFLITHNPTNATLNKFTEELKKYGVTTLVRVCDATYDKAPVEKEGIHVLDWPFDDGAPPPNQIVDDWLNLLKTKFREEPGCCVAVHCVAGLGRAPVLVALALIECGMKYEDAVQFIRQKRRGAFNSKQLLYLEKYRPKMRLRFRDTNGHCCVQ

B1: full-length CNNM3 (CNNM3 WT-v5) (protein, UniProt Q8NE01 1-707)
chain: MAAAVAAAGRLGWLFAALCLGNAAGEAAPGPRVLGFCLEEDGAAGAGWVRGGAARDTPDATFLLRLFGPGFANSSWSWVAPEGAGCREEAASPAGEWRALLRLRLRAEAVRPHSALLAVRVEPGGGAAEEAAPPWALGLGAAGLLALAALARGLQLSALALAPAEVQVLRESGSEAERAAARRLEPARRWAGCALGALLLLASLAQAALAVLLYRAAGQRAVPAVLGSAGLVFLVGEVVPAAVSGRWTLALAPRALGLSRLAVLLTLPVALPVGQLLELAARPGRLRERVLELARGGGDPYSDLSKGVLRCRTVEDVLTPLEDCFMLDASTVLDFGVLASIMQSGHTRIPVYEEERSNIVDMLYLKDLAFVDPEDCTPLSTITRFYNHPLHFVFNDTKLDAVLEEFKRGKSHLAIVQKVNNEGEGDPFYEVLGLVTLEDVIEEIIRSEILDESEDYRDTVVKRKPASLMAPLKRKEEFSLFKVSDDEYKVTISPQLLLATQRFLSREVDVFSPLRISEKVLLHLLKHPSVNQEVRFDESNRLATHHYLYQRSQPVDYFILILQGRVEVEIGKEGLKFENGAFTYYGVSALTVPSSVHQSPVSSLQPIRHDLQPDPGDGTHSSAYCPDYTVRALSDLQLIKVTRLQYLNALLATRAQNLPQSPENTDLQVIPGSQTRLLGEKTTTAAGSSHSRPGVPVEGSPGRNPGV
B2: His-PRL-2 (enzyme, UniProt Q12974 1-167)
chain: T1 sequence

Columns and labels:
GST-PRL-2 (human) = target: T1, GST-PRL-2 (human); assay: pull-down; HeLa cells transiently co-transfected with GST-PRL-2 and full-length CNNM3 or mutants; GST pulldown on cell extracts, Western blot with v5 or GST antibodies
[1] = target: GST-CBS (Bateman module of human CNNM3, amino acids 302-452) (human) (UniProt Q8NE01); assay: condition: only with thienopyridone (various concentrations); pull-down; in vitro; as the control, but His-PRL-2 incubated 20 min at 4 °C with various concentrations of thienopyridone before it was added to GST-CBS-bound beads; both purified

Binder	binding (GST-PRL-2 (human))	binding [1]
B1	binds	–
B2	–	no binding
